PubChem BioAssay AID1259308 | NCATS | 2017
Aim: 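Candidate targets for better recombinant protein yield in mammalian cells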 (primary screen). Cell system: human HEK293 embryonic kidney cells stably expressing firefly luciferase (HEK-CMV-Luc2-Hygro). Reagents: single siRNA against human genes, 0.8 pmol siRNA per well. Timing: 72 h. Read-out: 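Reporter luminescence and viable-cell signal on separate replicate plates, given as percent of non-targeting control and median/MAD z-scores, plus per-cell luciferase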. Reading the numbers: total luciferase, z-score: higher = more reporter protein produced. Call rule: 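An siRNA counts as active if its total luciferase robust z-score exceeds 3; genes with two or more such siRNAs out of three were retested with fresh siRNAs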. Meaning of the calls: active = raised luciferase; inactive = no rise.
The deposit covers about 59,000 reagents; this is an unselected part. About 1,510 of them (2.6%) were called active. 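Calls use total luciferase alone and ignore viability, so some active siRNAs may act by altering cell number.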 Reagents against one gene are numbered here. Not all columns of the deposit are shown.

gene | reagent | total luciferase, z-score | activity call
LGALS16 | 1 | -1.25 | inactive
LGALS16 | 2 | -0.81 | inactive
LGALS16 | 3 | -1.54 | inactive
MS4A6E | 1 | -1.03 | inactive
MS4A6E | 2 | -0.531 | inactive
MS4A6E | 3 | -0.533 | inactive
CFAP54 | 1 | -0.0974 | inactive
CFAP54 | 2 | -1.05 | inactive
CFAP54 | 3 | 0.22 | inactive
CFAP54 | 4 | 0.216 | inactive
CFAP54 | 5 | -0.637 | inactive
CFAP54 | 6 | 1.66 | inactive
CFAP54 | 7 | 0.655 | inactive
CFAP54 | 8 | 0.396 | inactive
CFAP54 | 9 | -0.416 | inactive
ZNF429 | 1 | -0.0748 | inactive
ZNF429 | 2 | 0.963 | inactive
ZNF429 | 3 | 1.32 | inactive
VN1R5 | 1 | -1.7 | inactive
VN1R5 | 2 | 0.733 | inactive
VN1R5 | 3 | 0.00459 | inactive
GP1BA | 1 | -1.1 | inactive
GP1BA | 2 | 0.0436 | inactive
GP1BA | 3 | 1.59 | inactive
SERTM1 | 1 | 2.58 | inactive
SERTM1 | 2 | 0.804 | inactive
SERTM1 | 3 | -0.0346 | inactive
TSPOAP1 | 1 | -0.875 | inactive
TSPOAP1 | 2 | -1.96 | inactive
TSPOAP1 | 3 | 0.459 | inactive
TNFSF11 | 1 | -0.166 | inactive
TNFSF11 | 2 | -1.3 | inactive
TNFSF11 | 3 | 0.749 | inactive
LINC00442 | 1 | -0.76 | inactive
LINC00442 | 2 | 1.14 | inactive
LINC00442 | 3 | -0.161 | inactive
OPHN1 | 1 | 1.03 | inactive
OPHN1 | 2 | 0.989 | inactive
OPHN1 | 3 | -0.1 | inactive
